Experimental data from patent publication US12091402B2 (Avilar Therapeutics, Inc., priority 2021, dated 2024).

The chains behind the UniProt entries cited, without tags or fusion partners.
UniProt P07306, whole entry: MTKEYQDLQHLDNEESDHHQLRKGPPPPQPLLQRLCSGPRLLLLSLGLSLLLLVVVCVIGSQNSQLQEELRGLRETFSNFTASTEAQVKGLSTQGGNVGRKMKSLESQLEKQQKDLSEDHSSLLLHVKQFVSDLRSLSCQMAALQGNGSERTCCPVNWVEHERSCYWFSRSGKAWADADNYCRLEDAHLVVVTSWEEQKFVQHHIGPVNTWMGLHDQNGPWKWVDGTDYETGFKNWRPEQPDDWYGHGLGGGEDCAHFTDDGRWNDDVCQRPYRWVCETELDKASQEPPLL
UniProt P07307, whole entry partner: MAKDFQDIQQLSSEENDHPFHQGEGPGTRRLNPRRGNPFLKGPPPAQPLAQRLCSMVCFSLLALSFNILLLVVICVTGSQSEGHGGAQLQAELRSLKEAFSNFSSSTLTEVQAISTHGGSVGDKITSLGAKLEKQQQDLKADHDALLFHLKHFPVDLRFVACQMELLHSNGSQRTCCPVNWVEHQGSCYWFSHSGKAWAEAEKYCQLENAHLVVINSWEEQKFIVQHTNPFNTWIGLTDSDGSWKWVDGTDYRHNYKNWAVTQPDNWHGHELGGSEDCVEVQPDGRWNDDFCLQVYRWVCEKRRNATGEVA

What was measured:
ASGPR = ASGPR (Homo sapiens, UniProt P07306); assay: Affinity to ASGPR by surface plasmon resonance (SPR)
[1] = target: ASGPR receptor on the cell surface (HepG2 cells) (Homo sapiens, UniProt P07306); assay: Ternary complex formation assay (flow cytometry, HepG2); type: cell-based; settings: read-out: Ternary Complex EC50
IgG = assay: Affinity to IgG by surface plasmon resonance (SPR); settings: read-out: IgG SPR Binding Kd; Biacore 8K, 25° C., IgG on CM5 chip
Method: Immobilization levels ranging from 1000-1300 resonance units (RU) are obtained. The running buffer is 10 mM HEPES, pH 7.4, 400 mM NaCl, 0.005% P20, […]. The initial concentration of compounds varies from 500 nM to 100 nM depending on Kd values.

HepG2 cells = assay: Cellular uptake assay of AF488-labeled antibody (HepG2); type: cell-based; settings: read-out: Uptake Assay EC50, 100 nM AF488-labeled antibody, 37° C. for 6 hours, class symbols

Row | Structure (SMILES) | Kd (ASGPR; read-out: ASGPR SPR Binding: KD, Biacore 8K, 25° C., class symbols) [µM] | Kd (ASGPR; read-out: ASGPR SPR Binding Kd) [µM] | EC50 [1] [µM] | Kd (IgG) [µM] | EC50 (HepG2 cells) [µM]
1 | C=CCO[C@H]1O[C@H](CO)[C@H](O)[C@H](O)[C@H]1Nc1cncc(C(F)(F)F)n1 | < 1 |  |  |  | 
2 | CC(C)C[C@@H]1NC(=O)[C@H](Cc2cnc[nH]2)NC(=O)[C@H](Cc2c[nH]c3ccccc23)NC(=O)[C@H](C)NC(=O)[C@@H](NC(=O)[C@H](CC(=O)O)NC(=O)CCOCCOCCOCCOCCNC(=O)CCCc2cn(CCCCCC(=O)NC(COCCC(=O)NCCOCCOCCOCCOC[C@@]34CO[C@@H](O3)[C@H](Nc3nc(Cl)ns3)[C@@H](O)[C@H]4O)COCCC(=O)NCCOCCOCCOCCOC[C@@]34CO[C@@H](O3)[C@H](Nc3nc(Cl)ns3)[C@@H](O)[C@H]4O)nn2)CSSC[C@@H](C(=O)N[C@H](C(N)=O)[C@@H](C)O)NC(=O)[C@H](Cc2c[nH]c3ccccc23)NC(=O)[C@H](C(C)C)NC(=O)[C@H](CC(C)C)NC(=O)[C@H](CCC(=O)O)NC(=O)CNC1=O |  | < 0.1 | < 0.1 | < 0.1 | < 0.1

Where two headings read alike, the source gives them in different places. The match of structure and compound is tentative.
